Laboratory results reported in article PMC2793518.
These are yes or no findings as the source states them, for the method shown. Some results given as binding are weak or reduced against the parent protein; the word gives no strength.

Protein sequences, listed by entry. Tags and fused reporters are not part of them. Residues count along the entry.
UniProt P78310, residues 20-365: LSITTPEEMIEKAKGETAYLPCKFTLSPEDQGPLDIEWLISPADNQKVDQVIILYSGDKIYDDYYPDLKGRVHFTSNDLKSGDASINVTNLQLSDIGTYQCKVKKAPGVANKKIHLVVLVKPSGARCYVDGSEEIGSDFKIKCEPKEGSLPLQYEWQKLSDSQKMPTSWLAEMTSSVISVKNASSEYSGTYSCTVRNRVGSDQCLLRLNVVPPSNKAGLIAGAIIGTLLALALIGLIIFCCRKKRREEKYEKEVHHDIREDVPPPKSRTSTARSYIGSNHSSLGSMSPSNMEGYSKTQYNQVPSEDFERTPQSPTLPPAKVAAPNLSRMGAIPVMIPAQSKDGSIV
UniProt P15529, residues 35-392: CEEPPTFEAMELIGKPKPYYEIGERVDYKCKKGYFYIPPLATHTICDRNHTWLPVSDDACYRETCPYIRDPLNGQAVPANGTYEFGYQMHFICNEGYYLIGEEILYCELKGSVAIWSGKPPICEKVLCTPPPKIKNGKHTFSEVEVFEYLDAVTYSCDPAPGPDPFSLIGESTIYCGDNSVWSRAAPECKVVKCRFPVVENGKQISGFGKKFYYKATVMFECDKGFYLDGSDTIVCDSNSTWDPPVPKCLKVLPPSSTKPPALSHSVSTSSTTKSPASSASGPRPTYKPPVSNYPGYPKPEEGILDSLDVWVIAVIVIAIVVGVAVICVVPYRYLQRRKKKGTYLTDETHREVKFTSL

Columns and labels:
[1] = molecular target: CAR on A549 cells (human (endogenous in A549)) (UniProt P78310); experiment: flow cytometry on cells; A549 cultures infected with CRAD (low MOI, days 3 to 7; or MOI 5 or 50, 12 to 24 hr) or WT adenoviruses (until CPE or day 10); cell surface fiber detected with 4D2 mAb, CAR with RmcB mAb, CD46 with E4.3, J4.48 or MEM-258 mAb; staining on ice
[2] = molecular target: CD46 on A549 cells (human (endogenous in A549)) (UniProt P15529); experiment: as above
[3] = molecular target: CAR on CHO cells stably transfected with CAR cDNA (UniProt P78310); experiment: flow cytometry on cells; CHO-CAR and CHO-control transfectants incubated 2 hr at 37°C with 0.5 mL supernatant of Ad5-CRAD infected A549 cultures, washed; cell surface fiber detected with 4D2 mAb
[4] = molecular target: CAR on A549 cells (human (endogenous in A549)) (UniProt P78310); experiment: flow cytometry on cells; fresh A549 cells incubated 2 hr at 37°C (also 0°C) with supernatants of Ad5-CRAD infected A549 cultures (whole, <300 KDa or >300 KDa fraction), washed; fiber detected with 4D2 mAb, CAR with RmcB mAb
[5] = molecular target: CAR on A549 cells (human (endogenous in A549)) (UniProt P78310); experiment: flow cytometry on cells; A549 cells first incubated 2 hr at 37°C with 2 µg/ml recombinant Ad5 or Ad35 fiber knob, washed, then 2 hr at 37°C with 0.5 mL supernatant of Ad5-CRAD or Ad5F35-CRAD infected cultures; endogenous fiber detected with 4D2 mAb

Measured: binding

B1: Ad37 fiber (protein, UniProt Q64823 1-365)
chain: MSKRLRVEDDFNPVYPYGYARNQNIPFLTPPFVSSDGFKNFPPGVLSLKLADPITITNGDVSLKVGGGLTLQDGSLTVNPKAPLQVNTDKKLELAYDNPFESSANKLSLKVGHGLKVLDEKSAAGLKDLIGKLVVLTGKGIGTENLENTDGSSRGIGINVRAREGLTFDNDGYLVAWNPKYDTRTLWTTPDTSPNCTIAQDKDSKLTLVLTKCGSQILANVSLIVVAGKYHIINNKTNPKIKSFTIKLLFNKNGVLLDNSNLGKAYWNFRSGNSNVSTAYEKAIGFMPNLVAYPKPSNSKKYARDIVYGTIYLGGKPDQPAVIKTTFNQETGCEYSITFNFSWSKTYENVEFETTSFTFSYIAQE
binds: [1] | [2]

B2: Ad5 fiber (free trimeric fiber molecules released from Ad5-CRAD or WT Ad5 infected cells) (protein, UniProt P11818 1-581)
chain: MKRARPSEDTFNPVYPYDTETGPPTVPFLTPPFVSPNGFQESPPGVLSLRLSEPLVTSNGMLALKMGNGLSLDEAGNLTSQNVTTVSPPLKKTKSNINLEISAPLTVTSEALTVAAAAPLMVAGNTLTMQSQAPLTVHDSKLSIATQGPLTVSEGKLALQTSGPLTTTDSSTLTITASPPLTTATGSLGIDLKEPIYTQNGKLGLKYGAPLHVTDDLNTLTVATGPGVTINNTSLQTKVTGALGFDSQGNMQLNVAGGLRIDSQNRRLILDVSYPFDAQNQLNLRLGQGPLFINSAHNLDINYNKGLYLFTASNNSKKLEVNLSTAKGLMFDATAIAINAGDGLEFGSPNAPNTNPLKTKIGHGLEFDSNKAMVPKLGTGLSFDSTGAITVGNKNNDKLTLWTTPAPSPNCRLNAEKDAKLTLVLTKCGSQILATVSVLAVKGSLAPISGTVQSAHLIIRFDENGVLLNNSFLDPEYWNFRNGDLTEGTAYTNAVGFMPNLSAYPKSHGKTAKSNIVSQVYLNGDKTKPVTLTITLNGTQETGDTTPSAYSMSFSWDWSGHNYINEIFATSSYTFSYIAQE
not listed: [2]
binds: all other assays above
